Measurements published in patent US8680133B2, “Alkyl indole-3-carbinol-derived antitumor agents” (The Ohio State University Research Foundation, priority 2009, dated 2014).

How the values were obtained:
Assay type in all cases: cell-based, human
HT29 = experiment: NCI60 screening, Colon Cancer, HT29
SK-OV-3 = experiment: NCI60 screening, Ovarian Cancer, SK-OV-3
NCI-H522 = experiment: NCI60 screening, Non-Small Cell Lung Cancer, NCI-H522
KM12 = experiment: NCI60 screening, Colon Cancer, KM12
MOLT-4 = experiment: NCI60 screening, Leukemia, MOLT-4
RXF 393 = experiment: NCI60 screening, Renal Cancer, RXF 393
HCT-116 = experiment: NCI60 screening, Colon Cancer, HCT-116
T-47D = experiment: NCI60 screening, Breast Cancer, T-47D
HCC-2998 = experiment: NCI60 screening, Colon Cancer, HCC-2998
OVCAR-8 = experiment: NCI60 screening, Ovarian Cancer, OVCAR-8
NCl/ADR-RES = experiment: NCI60 screening, Ovarian Cancer, NCl/ADR-RES
MCF7 = experiment: NCI60 screening, Breast Cancer, MCF7
DU-145 = experiment: NCI60 screening, Prostate Cancer, DU-145
SF-268 = experiment: NCI60 screening, CNS Cancer, SF-268
OVCAR-3 = experiment: NCI60 screening, Ovarian Cancer, OVCAR-3
NCI-H460 = experiment: NCI60 screening, Non-Small Cell Lung Cancer, NCI-H460
PC-3 = experiment: NCI60 screening, Prostate Cancer, PC-3
U0-31 = experiment: NCI60 screening, Renal Cancer, U0-31
MDA-MB-231/ATCC = experiment: NCI60 screening, Breast Cancer, MDA-MB-231/ATCC
HOP-92 = experiment: NCI60 screening, Non-Small Cell Lung Cancer, HOP-92
RPMl-8226 = experiment: NCI60 screening, Leukemia, RPMl-8226
IGROV1 = experiment: NCI60 screening, Ovarian Cancer, IGROV1
CAKI-1 = experiment: NCI60 screening, Renal Cancer, CAKI-1
MDA-MB-435 = experiment: NCI60 screening, Melanoma, MDA-MB-435
NCI-H23 = experiment: NCI60 screening, Non-Small Cell Lung Cancer, NCI-H23

Cc1ccc2c(c1)c(CO)cn2S(=O)(=O)c1ccc(Cl)c([N+](=O)[O-])c1 [OSU-A9M, [1-(4-chloro-3-nitro-benzenesulfonyl)-5-methyl-1H-indol-3-yl]-methanol]
Mean Optical Densities (HT29; Log10 Concentration −4.0): −0.029 | Mean Optical Densities (HT29; Log10 Concentration −5.0): −0.034 | Mean Optical Densities (HT29; Log10 Concentration −6.0): 0.294 | Mean Optical Densities (HT29; Log10 Concentration −7.0): 0.772 | Mean Optical Densities (HT29; Log10 Concentration −8.0): 0.756 | Mean Optical Densities (SK-OV-3; Log10 Concentration −4.0): −0.013 | Mean Optical Densities (SK-OV-3; Log10 Concentration −5.0): 0.012 | Mean Optical Densities (SK-OV-3; Log10 Concentration −6.0): 1.006 | Mean Optical Densities (SK-OV-3; Log10 Concentration −7.0): 1.034 | Mean Optical Densities (SK-OV-3; Log10 Concentration −8.0): 1.026 | Mean Optical Densities (NCI-H522; Log10 Concentration −4.0): 0.012 | Mean Optical Densities (NCI-H522; Log10 Concentration −5.0): 0.013 | Mean Optical Densities (NCI-H522; Log10 Concentration −6.0): 0.126 | Mean Optical Densities (NCI-H522; Log10 Concentration −7.0): 0.505 | Mean Optical Densities (NCI-H522; Log10 Concentration −8.0): 0.523 | Mean Optical Densities (KM12; Log10 Concentration −4.0): −0.012 | Mean Optical Densities (KM12; Log10 Concentration −5.0): −0.007 | Mean Optical Densities (KM12; Log10 Concentration −6.0): 1.420 | Mean Optical Densities (KM12; Log10 Concentration −7.0): 1.505 | Mean Optical Densities (KM12; Log10 Concentration −8.0): 1.591 | Mean Optical Densities (MOLT-4; Log10 Concentration −4.0): 0.172 | Mean Optical Densities (MOLT-4; Log10 Concentration −5.0): 0.263 | Mean Optical Densities (MOLT-4; Log10 Concentration −6.0): 0.733 | Mean Optical Densities (MOLT-4; Log10 Concentration −7.0): 1.635 | Mean Optical Densities (MOLT-4; Log10 Concentration −8.0): 1.731 | Mean Optical Densities (RXF 393; Log10 Concentration −4.0): 0.056 | Mean Optical Densities (RXF 393; Log10 Concentration −5.0): 0.149 | Mean Optical Densities (RXF 393; Log10 Concentration −6.0): 1.512 | Mean Optical Densities (RXF 393; Log10 Concentration −7.0): 1.608 | Mean Optical Densities (RXF 393; Log10 Concentration −8.0): 1.589 | Mean Optical Densities (HCT-116; Log10 Concentration −4.0): −0.005 | Mean Optical Densities (HCT-116; Log10 Concentration −5.0): −0.004 | Mean Optical Densities (HCT-116; Log10 Concentration −6.0): 0.295 | Mean Optical Densities (HCT-116; Log10 Concentration −7.0): 0.805 | Mean Optical Densities (HCT-116; Log10 Concentration −8.0): 0.809 | Mean Optical Densities (T-47D; Log10 Concentration −4.0): 0.145 | Mean Optical Densities (T-47D; Log10 Concentration −5.0): 0.129 | Mean Optical Densities (T-47D; Log10 Concentration −6.0): 0.547 | Mean Optical Densities (T-47D; Log10 Concentration −7.0): 0.664 | Mean Optical Densities (T-47D; Log10 Concentration −8.0): 0.670 | Mean Optical Densities (HCC-2998; Log10 Concentration −4.0): 0.005 | Mean Optical Densities (HCC-2998; Log10 Concentration −5.0): 0.002 | Mean Optical Densities (HCC-2998; Log10 Concentration −6.0): 1.421 | Mean Optical Densities (HCC-2998; Log10 Concentration −7.0): 1.533 | Mean Optical Densities (HCC-2998; Log10 Concentration −8.0): 1.574 | Mean Optical Densities (OVCAR-8; Log10 Concentration −4.0): 0.034 | Mean Optical Densities (OVCAR-8; Log10 Concentration −5.0): 0.074 | Mean Optical Densities (OVCAR-8; Log10 Concentration −6.0): 1.350 | Mean Optical Densities (OVCAR-8; Log10 Concentration −7.0): 1.406 | Mean Optical Densities (OVCAR-8; Log10 Concentration −8.0): 1.365 | Mean Optical Densities (NCl/ADR-RES; Log10 Concentration −4.0): 0.028 | Mean Optical Densities (NCl/ADR-RES; Log10 Concentration −5.0): 0.034 | Mean Optical Densities (NCl/ADR-RES; Log10 Concentration −6.0): 1.070 | Mean Optical Densities (NCl/ADR-RES; Log10 Concentration −7.0): 1.092 | Mean Optical Densities (NCl/ADR-RES; Log10 Concentration −8.0): 1.048 | Mean Optical Densities (MCF7; Log10 Concentration −4.0): 0.040 | Mean Optical Densities (MCF7; Log10 Concentration −5.0): 0.057 | Mean Optical Densities (MCF7; Log10 Concentration −6.0): 0.651 | Mean Optical Densities (MCF7; Log10 Concentration −7.0): 1.149 | Mean Optical Densities (MCF7; Log10 Concentration −8.0): 1.144 | Mean Optical Densities (DU-145; Log10 Concentration −4.0): −0.027 | Mean Optical Densities (DU-145; Log10 Concentration −5.0): −0.024 | Mean Optical Densities (DU-145; Log10 Concentration −6.0): 1.006 | Mean Optical Densities (DU-145; Log10 Concentration −7.0): 1.018 | Mean Optical Densities (DU-145; Log10 Concentration −8.0): 1.078 | Mean Optical Densities (SF-268; Log10 Concentration −4.0): −0.007 | Mean Optical Densities (SF-268; Log10 Concentration −5.0): −0.003 | Mean Optical Densities (SF-268; Log10 Concentration −6.0): 1.039 | Mean Optical Densities (SF-268; Log10 Concentration −7.0): 1.022 | Mean Optical Densities (SF-268; Log10 Concentration −8.0): 0.995 | Mean Optical Densities (OVCAR-3; Log10 Concentration −4.0): −0.020 | Mean Optical Densities (OVCAR-3; Log10 Concentration −5.0): −0.013 | Mean Optical Densities (OVCAR-3; Log10 Concentration −6.0): 0.092 | Mean Optical Densities (OVCAR-3; Log10 Concentration −7.0): 0.492 | Mean Optical Densities (OVCAR-3; Log10 Concentration −8.0): 0.485 | Mean Optical Densities (NCI-H460; Log10 Concentration −4.0): 0.017 | Mean Optical Densities (NCI-H460; Log10 Concentration −5.0): 0.016 | Mean Optical Densities (NCI-H460; Log10 Concentration −6.0): 1.304 | Mean Optical Densities (NCI-H460; Log10 Concentration −7.0): 1.301 | Mean Optical Densities (NCI-H460; Log10 Concentration −8.0): 1.259 | Mean Optical Densities (PC-3; Log10 Concentration −4.0): 0.041 | Mean Optical Densities (PC-3; Log10 Concentration −5.0): 0.335 | Mean Optical Densities (PC-3; Log10 Concentration −6.0): 0.971 | Mean Optical Densities (PC-3; Log10 Concentration −7.0): 0.970 | Mean Optical Densities (PC-3; Log10 Concentration −8.0): 1.000 | Mean Optical Densities (U0-31; Log10 Concentration −4.0): −0.017 | Mean Optical Densities (U0-31; Log10 Concentration −5.0): 0.080 | Mean Optical Densities (U0-31; Log10 Concentration −6.0): 1.405 | Mean Optical Densities (U0-31; Log10 Concentration −7.0): 1.413 | Mean Optical Densities (U0-31; Log10 Concentration −8.0): 1.310 | Mean Optical Densities (MDA-MB-231/ATCC; Log10 Concentration −4.0): 0.052 | Mean Optical Densities (MDA-MB-231/ATCC; Log10 Concentration −5.0): 0.038 | Mean Optical Densities (MDA-MB-231/ATCC; Log10 Concentration −6.0): 0.636 | Mean Optical Densities (MDA-MB-231/ATCC; Log10 Concentration −7.0): 0.723 | Mean Optical Densities (MDA-MB-231/ATCC; Log10 Concentration −8.0): 0.761 | Mean Optical Densities (HOP-92; Log10 Concentration −4.0): 0.029 | Mean Optical Densities (HOP-92; Log10 Concentration −5.0): 0.068 | Mean Optical Densities (HOP-92; Log10 Concentration −6.0): 1.276 | Mean Optical Densities (HOP-92; Log10 Concentration −7.0): 1.310 | Mean Optical Densities (HOP-92; Log10 Concentration −8.0): 1.383 | Mean Optical Densities (RPMl-8226; Log10 Concentration −4.0): 0.288 | Mean Optical Densities (RPMl-8226; Log10 Concentration −5.0): 0.400 | Mean Optical Densities (RPMl-8226; Log10 Concentration −6.0): 1.985 | Mean Optical Densities (RPMl-8226; Log10 Concentration −7.0): 2.108 | Mean Optical Densities (RPMl-8226; Log10 Concentration −8.0): 2.226 | Mean Optical Densities (IGROV1; Log10 Concentration −4.0): −0.009 | Mean Optical Densities (IGROV1; Log10 Concentration −5.0): −0.032 | Mean Optical Densities (IGROV1; Log10 Concentration −6.0): 0.196 | Mean Optical Densities (IGROV1; Log10 Concentration −7.0): 0.481 | Mean Optical Densities (IGROV1; Log10 Concentration −8.0): 0.444 | Mean Optical Densities (CAKI-1; Log10 Concentration −4.0): 0.028 | Mean Optical Densities (CAKI-1; Log10 Concentration −5.0): 0.046 | Mean Optical Densities (CAKI-1; Log10 Concentration −6.0): 1.588 | Mean Optical Densities (CAKI-1; Log10 Concentration −7.0): 1.796 | Mean Optical Densities (CAKI-1; Log10 Concentration −8.0): 1.759 | Mean Optical Densities (MDA-MB-435; Log10 Concentration −4.0): 0.039 | Mean Optical Densities (MDA-MB-435; Log10 Concentration −5.0): 0.031 | Mean Optical Densities (MDA-MB-435; Log10 Concentration −6.0): 1.691 | Mean Optical Densities (MDA-MB-435; Log10 Concentration −7.0): 1.761 | Mean Optical Densities (MDA-MB-435; Log10 Concentration −8.0): 1.881 | Mean Optical Densities (NCI-H23; Log10 Concentration −4.0): 0.016 | Mean Optical Densities (NCI-H23; Log10 Concentration −5.0): 0.009 | Mean Optical Densities (NCI-H23; Log10 Concentration −6.0): 0.788 | Mean Optical Densities (NCI-H23; Log10 Concentration −7.0): 0.826 | Mean Optical Densities (NCI-H23; Log10 Concentration −8.0): 0.836
